PubChem BioAssay AID1224830 – NIAID – 2016
Test: 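Host factors that control LPS-induced TNF expression in human macrophages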 (primary screen). Cell system: human THP-1 monocytic leukaemia cells, TNF dual-luciferase reporter clone, PMA-differentiated to macrophage-like cells. Reagent: siRNA pool against human genes, 50 nM. Timing: LPS for 4 h, given about 3 days after siRNA transfection. Challenge: bacterial LPS (TLR4 ligand), 10 ng/ml. Read-out: 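Ratio of firefly to renilla light, scaled to the plate median and expressed as a robust z-score per replicate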. Reading the numbers: TNF reporter robust z-score: higher = stronger TNF reporter response to LPS. Active means: 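Each well counts as active if its z-score is over 2.8 or under -1.5; controls are left without a call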.
The deposit covers about 18,000 reagents; below is a random part of them. Over the whole deposit, about 2,900 (16%) got an active call. 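Calls are made per well; low scores hint the gene aids the LPS response, high scores that it dampens it.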 Entries without a mark were called inactive. Repeated entries: four replicate wells of each siRNA pool.

gene knocked down	TNF reporter robust z-score
GOLGA2	0.47
GOLGA2	1.36
GOLGA2	0.01
GOLGA2	2.55
GTPBP10	-0.57
GTPBP10	1.34
GTPBP10	-0.35
GTPBP10	0.97
SLC36A2	0.76
SLC36A2	1.07
SLC36A2	1.41
SLC36A2	1.15
AP1S3	0.84
AP1S3	1
AP1S3	0.37
AP1S3	1.02
EPB41L4B	0.13
EPB41L4B	0.52
EPB41L4B	0.47
EPB41L4B	0.85
GADL1	0.14
GADL1	0.97
GADL1	-0.06
GADL1	1.43
TXNDC8	1.37
TXNDC8	2.41
TXNDC8	1.57
TXNDC8	1.11
KCNJ3	-0.17
KCNJ3	0.01
KCNJ3	-0.35
KCNJ3	0.87
PRR15L	1.22
PRR15L	-0.35
PRR15L	-0.48
PRR15L	-0.86
DHRS9	1.16
DHRS9	0.62
DHRS9	1
DHRS9	-0.05
GOLGA8F	-0.15
GOLGA8F	1.34
GOLGA8F	-0.3
GOLGA8F	0.63
CYLC2	0.66
CYLC2	0.44
CYLC2	0.01
CYLC2	0.89
MIR1915HG	-0.99
MIR1915HG	-0.74
MIR1915HG	-0.4
MIR1915HG	-1.07
GAL3ST4	-0.29
GAL3ST4	-0.77
GAL3ST4	-0.38
GAL3ST4	-0.62
CALB1	0.17
CALB1	0.93
CALB1	-0.53
CALB1	-0.26
PCBP2	-0.76
PCBP2	0.03
PCBP2	-0.12
PCBP2	-0.01

15 successive records from above:
gene knocked down	TNF reporter robust z-score
CYLC2	0.01
CYLC2	0.89
MIR1915HG	-0.99
MIR1915HG	-0.74
MIR1915HG	-0.4
MIR1915HG	-1.07
GAL3ST4	-0.29
GAL3ST4	-0.77
GAL3ST4	-0.38
GAL3ST4	-0.62
CALB1	0.17
CALB1	0.93
CALB1	-0.53
CALB1	-0.26
PCBP2	-0.76

Next results follow.
gene knocked down	TNF reporter robust z-score
TRAP1	-0.84
TRAP1	-0.08
TRAP1	-0.39
TRAP1	-0.02
NDUFB11	0.99
NDUFB11	0.09
NDUFB11	-0.38
NDUFB11	0.08
HLA-B	0.23
HLA-B	0.36
HLA-B	-0.49
HLA-B	-0.2
STUM	-0.71
STUM	-0.88
STUM	-0.82
STUM	-0.57
GALNT8	0.54
GALNT8	1.47
GALNT8	0.74
GALNT8	1.03
KCNF1	-0.89
KCNF1	-0.52
KCNF1	-0.85
UBE2W	0.51
UBE2W	-0.38
UBE2W	0.31
MIER3	-1.33
MIER3	-1.3
MIER3	-0.57
MIER3	-0.78
AQP4	-1.71 (active)
AQP4	-1.35
AQP4	-1.51 (active)
AQP4	-0.9
RHAG	0.3
RHAG	0.84
RHAG	0.66
COL9A2	1.05
COL9A2	2.1
COL9A2	2.27
COL9A2	1.84
P2RX4	-0.35
P2RX4	-0.71
P2RX4	-0.09
P2RX4	1.11
KMT2B	-0.11
KMT2B	-0.23
KMT2B	-0.42
KMT2B	-0.85
